Drawing on patent US20250249092A1 (TORAY INDUSTRIES, published 2025), this text covers binding for 15 molecules.

No constants are given. Whether binding was seen depends on the method and setting. Some binding calls cover weakened binding; strength is not graded here.

In assay [1] the target is T1, CAPRIN-1 protein on the cell membrane surface of cancer cells (UniProt Q14444).
T1 sequence (looked up): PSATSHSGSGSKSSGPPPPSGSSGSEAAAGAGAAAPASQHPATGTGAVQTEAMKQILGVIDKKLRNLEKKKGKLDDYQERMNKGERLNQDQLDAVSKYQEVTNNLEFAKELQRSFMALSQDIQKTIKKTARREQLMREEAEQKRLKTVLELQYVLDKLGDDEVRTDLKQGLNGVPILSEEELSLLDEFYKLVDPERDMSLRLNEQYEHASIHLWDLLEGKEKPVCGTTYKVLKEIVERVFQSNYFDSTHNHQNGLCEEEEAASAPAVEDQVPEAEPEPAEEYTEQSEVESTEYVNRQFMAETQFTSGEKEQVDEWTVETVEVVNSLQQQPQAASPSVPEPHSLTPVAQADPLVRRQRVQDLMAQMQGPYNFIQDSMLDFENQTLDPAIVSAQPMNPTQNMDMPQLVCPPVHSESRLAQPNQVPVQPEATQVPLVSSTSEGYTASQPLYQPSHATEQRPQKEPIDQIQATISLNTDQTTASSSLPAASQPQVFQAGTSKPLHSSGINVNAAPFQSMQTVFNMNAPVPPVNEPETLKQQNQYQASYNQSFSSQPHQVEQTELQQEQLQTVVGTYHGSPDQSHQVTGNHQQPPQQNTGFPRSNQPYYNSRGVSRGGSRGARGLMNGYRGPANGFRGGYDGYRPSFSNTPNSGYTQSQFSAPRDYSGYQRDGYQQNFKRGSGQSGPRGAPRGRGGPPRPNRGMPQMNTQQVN
The assay can be described thus: flow cytometry. On the technique in general: A flow cytometer gives signals particle by particle.

In the next assay the target is T2, CAPRIN-1 protein (UniProt Q14444).
T2 sequence (looked up): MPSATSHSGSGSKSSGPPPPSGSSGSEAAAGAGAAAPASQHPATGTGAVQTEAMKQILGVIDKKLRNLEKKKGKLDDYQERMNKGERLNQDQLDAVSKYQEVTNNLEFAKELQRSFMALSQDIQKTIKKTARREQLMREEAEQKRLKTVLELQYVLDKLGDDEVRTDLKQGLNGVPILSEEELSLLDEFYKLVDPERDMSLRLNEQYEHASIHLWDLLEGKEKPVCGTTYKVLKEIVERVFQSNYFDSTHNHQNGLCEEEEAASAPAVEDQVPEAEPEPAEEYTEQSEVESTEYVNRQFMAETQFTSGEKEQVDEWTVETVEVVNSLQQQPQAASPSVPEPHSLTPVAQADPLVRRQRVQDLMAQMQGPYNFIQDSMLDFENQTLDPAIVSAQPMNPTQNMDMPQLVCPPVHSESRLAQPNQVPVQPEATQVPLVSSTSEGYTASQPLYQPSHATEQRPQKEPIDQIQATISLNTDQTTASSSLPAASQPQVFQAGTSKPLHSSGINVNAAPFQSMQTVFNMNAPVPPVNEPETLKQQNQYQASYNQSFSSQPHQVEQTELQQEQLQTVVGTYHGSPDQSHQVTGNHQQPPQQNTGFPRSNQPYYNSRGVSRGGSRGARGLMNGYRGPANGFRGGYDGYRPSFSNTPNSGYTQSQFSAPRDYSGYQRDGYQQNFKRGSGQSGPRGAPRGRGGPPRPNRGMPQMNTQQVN
As to the kind of experiment: ELISA. Background: An ELISA detects its analyte on a solid surface through an enzyme-linked reagent.

B1: Conjugate 29 (antibody, V domains shown)
VH: AVTLDESGGGLQMSRGGLSLVCKASGFDFSSYQMNWIRQAPGKGLEFVAAINKFGNSTGHGAAVKGRVTISRDNGQSTVRLQLNNLRAEDTAIYFCTKHAYGYCGSGTWCAAGEIDAWGHGTEVIVSS
VL: QAASTQPSSVSANPGETVEITCSGGGSYSYGWFQQKSPGSAPVTVIYYNNKRPSDIPSRFSGSKSGSTGTLTITGVQADDEAVYYCGSGDSTDTAVFGAGTTLTVLG
notes: mouse chimeric antibody #1 (mouse IgG constant regions) + resiquimod, MC-Val-Cit-PAB linker
Turning to B1, the binding entry (in assay [1]; with CAPRIN-1 protein) was “binds” in each case.

B2: Conjugate 33 (antibody, V domains shown)
VH: AVTLDESGGGLQMSRGGLSLVCKASGFDFSSYQMNWIRQAPGKGLEFVAAINKFGNSTGHGAAVKGRVTISRDNGQSTVRLQLNNLRAEDTAIYFCTKHAYGYCGSGTWCAAGEIDAWGHGTEVIVSS
VL: QAASTQPSSVSANPGETVEITCSGGGSYSYGWFQQKSPGSAPVTVIYYNNKRPSDIPSRFSGSKSGSTGTLTITGVQADDEAVYYCGSGDSTDTAVFGAGTTLTVLG
notes: mouse chimeric antibody #1 (mouse IgG constant regions) + resiquimod derivative, SATA and SMCC linkers
Consider B2, for which the binding entry (in assay [1]; with CAPRIN-1 protein) was “binds” each time.

B3: Conjugate 31 (antibody, V domains shown)
VH: AVTLDESGGGLQTPGGGLSLVCKASGFTFSSFDMGWVRQAPGKGLEFVAQINDAGSRTWYATAVKGRATISRDNGQTTVRLQLNNLRAEDTGTYYCTRGSGYVGAGAIDAWGHGTEVIVS
VL: AALTQPSSVSANPGETVKITCSGGSGYYGWYQQQKSPGSAPVTVIYQNDKRPSDIPSRFSGSGSGSTNTLTITGVQAEDEAVYFCGRYDSTDSGIFGAGTTLTVL
notes: mouse chimeric antibody #3 (mouse IgG constant regions) + resiquimod, MC-Val-Cit-PAB linker
As for B3, the binding result (in assay [1]; with CAPRIN-1 protein) was “binds” each time.

B4: Conjugate 35 (antibody, V domains shown)
VH: AVTLDESGGGLQTPGGGLSLVCKASGFTFSSFDMGWVRQAPGKGLEFVAQINDAGSRTWYATAVKGRATISRDNGQTTVRLQLNNLRAEDTGTYYCTRGSGYVGAGAIDAWGHGTEVIVS
VL: AALTQPSSVSANPGETVKITCSGGSGYYGWYQQQKSPGSAPVTVIYQNDKRPSDIPSRFSGSGSGSTNTLTITGVQAEDEAVYFCGRYDSTDSGIFGAGTTLTVL
notes: mouse chimeric antibody #3 (mouse IgG constant regions) + resiquimod derivative, SATA and SMCC linkers
In the case of B4, the binding entry (in assay [1]; with CAPRIN-1 protein) was “binds” each time.

B5: Conjugate 45 (antibody, human IgG1, V domains shown)
VH: AVTLDESGGGLQTPGGALSLVCKASGFTFSGYDMLWVRQAPGKGLEWVAGIGSTGGGTDYGAAVKGRATISRDNGQSTVRLQLNNLRAEDTATYYCAKVAGGCNSGYCRDSPGSIDAWGHGTEVIVS
VL: AVTQQPASVSANPGETVKITCSGGGSRNYYGWYQQKSPGSVPVTVIYYDDQRPSNIPSRFSGALSGSTSTLTITGVQADDEAVYFCGSADSNTYEGSFGAGTTLTVL
Regarding B5, the binding result (in assay [1]; with CAPRIN-1 protein) was “binds” each time.

B6: Conjugate 177 (antibody, V domains shown)
VH: AVTLDESGGGLQTPGGALSLVCKASGFTFSGYDMLWVRQAPGKGLEWVAGIGSTGGGTDYGAAVKGRATISRDNGQSTVRLQLNNLRAEDTATYYCAKVAGGCNSGYCRDSPGSIDAWGHGTEVIVS
VL: AVTQQPASVSANPGETVKITCSGGGSRNYYGWYQQKSPGSVPVTVIYYDDQRPSNIPSRFSGALSGSTSTLTITGVQADDEAVYFCGSADSNTYEGSFGAGTTLTVL
As for B6, the binding entry (in assay [1]; in the assay with CAPRIN-1 protein) was “binds” each time.

B7: Conjugate 198 (antibody, V domains shown)
VH: GPDLVKPGASVKISCKASGYSFTAYYMHWVKQSHGKSLEWIGRVNPNNGGTTYNQKFKGKAILTVDKSSSTAYMELRSLTFEDSAVYYCARRIYYGYFDYWGQGTTVTVSS
VL: AFFAVSLGQRATISCKASQSVDYDGDSYMNWYQQKPGQPPKLLIYVASNLESGVPARFSGSGSGTDFTLNIHPVEEEDAATYYCQQSNEDPYTFGGGTKLEIKQ
As to B7, the binding entry (in assay [1]; with CAPRIN-1 protein) was “binds” in each case.

B8: Conjugate 182 (antibody, V domains shown)
VH: DAELVKPGASVKISCKASGYTFTDHSIHWVQQKPEQGLEWIGYISPGNGNIKYNEKFKGKATLTADKSSSTAYMQLNSLTSEDSAVYFCKRSLGRGGPYYFDYWGQGTTVTVSS
VL: DIVLTQAAPSLPVTPGESVSISCRSSKSLLHSNGNTYLYWFLQRPGQSPQLLIYRMSNLASGVPDRFSGSGSGTAFTLRISRVEAEDVGVYYCMQHREYPVTFGSGPN
Take B8: the binding entry (in assay [1]; with CAPRIN-1 protein) was “binds” throughout.

B9: Conjugate 174 (antibody, human IgG1, V domains shown)
VH: EVQLVESGGGLVQPGGSLRLSCAASGFSLSSHSLGWVRQAPGKGLEWIGDIRSGGSAYYANWAKGRFTISRDNSKNTLYLQMNSLRAEDTAVYFCTRTNGPSDLTNRLDLWGQGTLVTVSS
VL: EIVLTQSPSSLSASVGDRVTINCQASQSLYNNENLAWFQQKPGKVPKRLIYGASTLASGVSSRFSGSGSGTEFTLTISNLQPEDFATYYCLGEFSCGSADCFAFGGGTKVEIK
Take B9: the binding entry (in assay [1]; with CAPRIN-1 protein) was “binds” throughout.

B10: Conjugate 205 (antibody, V domains shown)
VH: EVQLVESGGGLVQPGGSLRLSCAASGFSLSSHSLGWVRQAPGKGLEWIGDIRSGGSAYYANWAKGRFTISRDNSKNTLYLQMNSLRAEDTAVYFCTRTNGPSDLTNRLDLWGQGTLVTVSS
VL: QVLTQSPSSLSASVGDRVTINCQASQSLYNNENLAWFQQKPGKVPKRLIYGASTLASGVSSRFSGSGSGTEFTLTISSLQCEDFAIYYCLGEFSCGSADCFAFGGGTKVEIK
B10: the binding result (in assay [1]; with CAPRIN-1 protein) was “binds” in each case.

B11: Conjugate 176 (antibody, human IgG1, V domains shown)
VH: EVQLVESGGGLVQPGGSLRLSCAASGFSLSSHSLGWVRQAPGKGLEWIGDIRSGGSAYYANWAKGRFTISRDNSKNTLYLQMNSLRAEDTAVYFCTRTNGPSDLTNRLDLWGQGTLVTVSS
VL: EQVLTQSPSSLSASVGDRVTINCQASQSLYNNENLAWFQQKPGKVPKRLIYGASTLASGVSSRFSGSGSGTEFTLTISNLQPEDFAIYYCLGEFSCGSADCFAFGGGTKVEIK
Take B11: the binding result (in assay [1]; with CAPRIN-1 protein) was “binds” throughout.

B12: Conjugate 204 (antibody, V domains shown)
VH: EVQLVESGGGLVQPGGSLRLSCAASGFSLSSHSLGWVRQAPGKGLEWIGDIRSGGSAYYANWAKGRFTISRDNSKNTLYLQMNSLRAEDTAVYYCTRTNGPSDLTNRLDLWGQGTLVTVSS
VL: QVLTQSPSSLSASVGDRVTINCQASQSLYNNENLAWFQQKPGKVPKRLIYGASTLASGVSSRFSGSGSGTEFTLTISSLQCEDFAIYYCLGEFSCGSADCFAFGGGTKVEIK
In the case of B12, the binding entry (in assay [1]; with CAPRIN-1 protein) was “binds” each time.

B13: Conjugate 175 (antibody, human IgG1, V domains shown)
VH: EVQLVESGGGLVQPGGSLRLSCAASGFSLSSHSLGWVRQAPGKGLEWIGDIRSGGSAYYANWAKGRFTISRDNSKNTLYLQMNSLRAEDTAVYYCTRTNGPSDLTNRLDLWGQGTLVTVSS
VL: EIVLTQSPSSLSASVGDRVTINCQASQSLYNNENLAWFQQKPGKVPKRLIYGASTLASGVSSRFSGSGSGTEFTLTISNLQPEDFATYYCLGEFSCGSADCFAFGGGTKVEIK
Regarding B13, the binding entry (in assay [1]; with CAPRIN-1 protein) was “binds” in each case.

B14: Conjugate 181 (antibody, V domains shown)
VH: GAELVRSGASVKMSCKASGYSFTDYNMYWVKQTPGQGLEWIGYIYPGNGGTNYNQKFKGKATLTADTSSSTAYMQISSLTSEDSAVYFCARDYDDGGYAMDYWGQGTTVTVSS
VL: DIQMTQSPASLSASVGETVTITCRASGNIHNYLTWYQQKQGKSPQLLVYNAKTLADGVPSRFSGSGSGTQYSLKINRLQPEDFGSYYCQHFWNIPWTFGGGTKLNSR
Consider B14, for which the binding result (in assay [1]; with CAPRIN-1 protein) was “binds” in each case.

B15: Conjugate 187 (antibody, V domains shown)
VH: EVQLHQFGAELVKPGASVKISCKASGYTFTDYNMDWVKQSHGKSLEWIGDINPNYDSTSYNQKFKGKATLTVDKSSSTAYMELRSLTSEDTAVYYCARSRSYDYEGFAYWGQGTLVTVSA
VL: DIQMTQSPASLSASVGETVTITCRASGNIHNYLAWYQQKQGKSPQLLVYNAKTLADGVPSRFSGSGSGTQYSLKINSLQPEDFGSYYCQHFWSTLTFGAGTKLELKR
Regarding B15, the binding result (in assay [1]; with CAPRIN-1 protein) was “binds” in each case.
